{
  "source": "PubChem BioAssay AID2284355",
  "about": "(EPA ToxCast)",
  "note": "Inconclusive means that the source gave no clear call. Such entries were picked first, then a sample of the others. A potency beside an inconclusive call is a rough fit, not a confirmed value. Calls of active or inactive are those of the source. The calls were made as follows: active = hit-call score of the fitted dose curve at least 0.9, where 1 is the maximum; inconclusive = response in the unintended direction; inactive = score below 0.9.",
  "data": [
    {"test_system": "rainbow trout Retinoid X Receptor beta (RXRb)", "experiment": "ATG_rtRXRb_EcoTox2: Attagene TRANS-FACTORIAL EcoTox-2 HepG2 Assay for rainbow trout Retinoid X Receptor beta (RXRb)", "procedure": "ATG_EcoTox2 is a cell-based, multiplexed assay created by modifying the existing Attagene TRANS-FACTORIAL system to include a panel of nuclear receptors from some or all the following species: human (Homo sapiens), african clawed frog (Xenopus laevis), rainbow trout (Oncorhynchus mykiss), japanese medaka (Oryzias latipes), and zebrafish (Danio rerio). The ECOTOX2-FACTORIAL format uses HepG2, a human liver cell line, with measurements taken at 24 hours after chemical dosing in a 24-well plate. ATG_rtRXRb_EcoTox2 is one of 29 assay components calculated in the ATG_EcoTox2 assay. It is designed to make measurements of mRNA induction, a form of inducible reporter, as detected with fluorescence intensity signals by Reverse transcription polymerase chain reaction (RT-PCR) and Capillary electrophoresis technology.The assay endpoint ATG_rtRXRb_EcoTox2 was analyzed in the positive analysis fitting direction relative to DMSO as the negative control and baseline of activity. Using a type of inducible reporter, measures of mRNA for gain-of-signal activity can be used to understand the reporter gene at the transcription factor-level as they relate to the gene RXRb. Furthermore, this assay endpoint can be referred to as a primary readout, because this assay has produced multiple assay endpoints where this one serves a reporter gene function. […]\nHuman liver HepG2 cells are transiently transfected with multiple reporter transcription units (MRTUs) in 6-well plates using FuGene 6 reagent (Roche; 3 ml FuGene/1 mg DNA). […] A major difference between the CIS and TRANS system is that in CIS activities of endogenous TFs are measured, whereas the TRANS assay evaluates changes in activities of exogenous, chimeric NR-Gal4 proteins. […] The fragments were purified using Qiaquick PCR columns (Qiagen), analyzed on an ABI 3130xL genetic analyzer (Applied Biosystems) with peak positions identified by using a set of X-rhodamine (ROX)-labeled MapMarker1000 molecular weight standards (BioVentures). […]", "values": [
      {"smiles": "[Cl][Sn]([c]1ccccc1)([c]1ccccc1)[c]1ccccc1", "AC50": "active: 0.119 µM"},
      {"smiles": "CCCCOCN(C(=O)CCl)c1c(CC)cccc1CC", "AC50": "inconclusive: 50 µM"},
      {"smiles": "O=C(O)C(F)(F)C(F)(F)C(F)(F)C(F)(F)C(F)(F)C(F)(F)C(F)(F)F", "AC50": "inconclusive: 75 µM"}
    ]}
  ]
}
